In experiment [1] the test system is junctions of the colonic mucosa. The experiment is described as follows: Blockade of the paracellular route by anti-diarrhoeal drugs (99mTc-EDTA transfer lumen to blood). The settings on record: in vivo.
The subject of another experiment is large intestine. The experiment in a line: Colon perfusion: secretory effect of rhein (water, sodium, K+) and its antagonism. The settings on record: in vivo.

For the compound `CN1CC[C@]23c4c5ccc(O)c4O[C@H]2[C@@H](O)C=C[C@H]3[C@H]1C5` [morphine], the “absorption of 99mTc-EDTA complex from the colon” value in experiment [1] was “retained nearly all the radioactive compound in the colon”. In the experiment with large intestine, the sodium absorption entry is “counteracted the inhibition of sodium absorption”.

The record behind these values is EP0938338B1, “CARRIER COMPOSITION FOR INFLUENCING THE TIGHT JUNCTION PERMEABILITY” (Ghyssaert, Joris Rosa Michael, priority 1996, dated 1998).
